Experimental data from article PMC7210271.

Key:
[1] = system: DNMT3A R882H MTase domain + DNMT3L C-terminal domain; assay: ITC; details: no appreciable binding, N.M.; ITC: 20 mM Tris-HCl pH 7.5, 100 mM NaCl, 5% glycerol, 4 C; recombinant protein; protein details: N-terminal His6-SUMO removed by ULP1
[2] = system: DNMT3A WT MTase domain + DNMT3L C-terminal domain; assay: ITC; details: ITC: 20 mM Tris-HCl pH 7.5, 100 mM NaCl, 5% glycerol, 4 C; recombinant protein; protein details: N-terminal His6-SUMO removed by ULP1

GACGACGACGACGACGACGACGAC (double strand) [24-mer (GAC)8 DNA]
binding result [1]: no binding
Kd [2]: 9.8 µM

Construct, isoform or probe ends are uncertain for at least one entry. For some assays here: Negatives hold for the conditions tested.
